# Results published in PubChem BioAssay AID493014 (National Center for Advancing Translational Sciences (NCATS), 2011).
# Among all 340,000 compounds or so, about 170 (0.05%) were called active. Inconclusive results, whose numbers are uncertain, are shown with a selection of clear calls. Calls follow the shape of the dose curve; as a rule, active = well fitted inhibition curve with a large enough effect in the signal ratio, with a control signal flat (not every such curve was filed as active); inconclusive = small, poorly fitted or top-dose-only effect, or effect the other way, or a change in a side signal; inactive = flat fitted curve, though single readings scatter; the % refers to the signal ratio. A potency beside an inconclusive call is a rough fit, not a confirmed value. Square brackets hold non-standard residues; d marks the D form. Peptide text beside a SMILES is read from it. * marks the point of attachment. ξ: configuration not given here. ξY = NC(Cc1ccc(O)cc1)C(=O)O; Cbz = O=C(OCc1ccccc1)*; OtBu = CC(C)(C)O*; tBu = CC(C)(C)*
# Experiment: qHTS Assay to Find Inhibitors of Chronic Active B-Cell Receptor Signaling;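 as to activity change, negative = inhibition: plate controls were basal doxycycline-induced cells for no effect and cells given 10 µM MG132 for full effect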
# Settings: ABC-DLBCL IkBa-CBG/CBR reporter, luminescence ratio (green luciferase fused to IkBa over red control in TMD8 lymphoma cells), 4 h; activity change, negative = inhibition: at 46.1 µM (top of the series)
# Method in brief: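 TMD8 ABC-DLBCL cells carrying doxycycline-inducible green luciferase fused to IkappaBalpha plus unfused red luciferase were exposed to compounds (up to 46 uM) for 4 hrs at 37C. Activity came from the overlap-corrected green/red luminescence ratio.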
# Potency is read from the fitted curve at half-maximal effect.
Structure (SMILES),"activity change, negative = inhibition",Potency
Cc1cc(C)cc(C(=O)NCC(=O)OCC(=O)Nc2cccnc2Cl)c1,inconclusive: -1.9%,
C[C@H](CO)N1C[C@H](C)[C@@H](CN(C)C(=O)Nc2ccccc2)Oc2ccc(NS(=O)(=O)c3ccc(F)cc3)cc2C1=O,inconclusive: 2.49%,
O=C(CNC(=O)c1ccco1)OCC(=O)c1ccccc1,inconclusive: 6.58%,
O=C(CCCc1c[nH]c2ccccc12)NCc1ccccc1C(F)(F)F,inconclusive: -6.07%,
COc1ccc(OCCCc2c(C)n[nH]c2C)cc1,inconclusive: 13.9%,
CN(C)c1ccc(C2CC(c3cccc(NS(C)(=O)=O)c3)=NN2C(=O)c2ccccc2)cc1 (configuration not stated),inactive: -22.4%,
CC(=O)Nc1nc2cc3c(cc2s1)OCCO3,,"inconclusive: 20 µM [falling, single point]"
COc1ccc(CCN2C(=O)NC(NC(C)=O)(C(F)(F)F)C2=O)cc1OC (configuration not stated),inconclusive: -1.42%,
CC(C)(C)c1ccc(C(=O)N/N=C/c2cccc(Cl)c2)cc1,inconclusive: 10.2%,
Cc1ccc(Cc2nc3ccccc3[nH]2)cc1,inconclusive: -18.3%,
Cc1cccc(C(=O)NCC(c2ccco2)S(=O)(=O)c2cccs2)c1 (configuration not stated),inconclusive: -27.1%,
Cc1ccc(NC(=O)CSc2nnc3ccc4ccccc4n23)cc1,inconclusive: 13%,
CC1CCN(C(=O)COC(=O)CCCN2C(=O)c3cccc4cccc(c34)C2=O)CC1,,"inconclusive: 0.708 µM [rising, full curve]"
CC(C)N(C(=S)NC1CC2CCC1C2)c1ccccc1 (configuration not stated),inactive: -6.03%,
CN(Cc1ccccc1)C(=O)c1ccccc1NC(=O)C1=CSCCO1,inconclusive: -1.94%,
COCCn1c(SCc2nc3ccccc3c(=O)[nH]2)nc2ccccc2c1=O,,"inconclusive: 3.98 µM [rising, full curve]"
O=C(NCCN1CCN(c2cccc(Cl)c2)CC1)Nc1ccccc1,inconclusive: -8.66%,
CCCC(C)n1[nH]c(=O)c2c(C)cc(C)nc21 (configuration not stated),inconclusive: 13%,
Cc1nc2c(-c3ccccc3)c(C)nn2c(C)c1CCC(=O)O,,"inconclusive: 29.1 µM [falling, single point]"
CCCCNC1C(CC)C(CCC)C(C#N)(C#N)C1(C#N)C#N (configuration not stated),inconclusive: 2.83%,
CC(C)(C)OC(=O)C(Cc1ccc(OC(C)(C)C)cc1)NC(=O)CNC(=O)CNC(=O)OCc1ccccc1 (stereo not drawn) (Cbz-Gly-Gly-[ξY](tBu)-OtBu),inconclusive: 7.6%,

Structure (SMILES),"activity change, negative = inhibition",Potency
CCOc1ccc(/C=C/C(=O)c2ccccc2)cc1OC,,"inconclusive: 20.6 µM [falling, single point]"
CC(=O)Nc1ccc2nc(-c3ccc(Br)o3)[nH]c2c1,inconclusive: -5.01%,
CCN(CC)CCn1c(NC(=O)c2ccc(C(F)(F)F)cc2)nc2ccccc21,,"inconclusive: 17.8 µM [falling, partial curve]"
O=C(NC(Cc1ccccc1)C(=O)NC(Cc1ccccc1)C(=O)O)c1ccccc1 (configuration not stated),inactive: 0.765%,
COc1ccc(CCNC(=O)c2ccc(Cl)c(S(=O)(=O)N(C)c3ccccc3)c2)cc1,inactive: -1.72%,
CC(C)(C)C(=O)Nc1ccccc1C(=O)NCCC(=O)Nc1ccccc1,inactive: 0.28%,
C=CCN(C(=O)c1cccc(N2C(=O)C3CC=CC(C)C3C2=O)c1)c1ccccc1 (configuration not stated),inconclusive: -17.8%,
CCCc1cc(=O)oc2cc(C)cc(OCC(=O)NCc3ccccn3)c12,inactive: 2.34%,
S=c1[nH]cnc2sc(Nc3ccccc3)nc12,,"inconclusive: 35.5 µM [rising, partial curve, poor fit]"
O=C(O)C1(S(=O)(=O)c2ccc(Cl)cc2)CCC1,inconclusive: -9.77%,
Cc1nc2ccc(NC(=O)N3CCSCC3)cc2nc1C,inconclusive: -28%,
COc1ccc(-c2ocnc2C(=O)N2CCN(C(=O)C(c3ccccc3)c3ccccc3)CC2)cc1,inconclusive: 1.18%,
CC1CCN(C(=O)CSc2nnc(-c3ccncc3)n2C)CC1,,"inconclusive: 0.206 µM [falling, full curve, poor fit]"
CC(C)(C)c1ccc(-c2nc(C#N)c(NCCCn3ccnc3)o2)cc1,,"inconclusive: 0.794 µM [falling, full curve, poor fit]"
O=C1N/C(=C/c2ccsc2)C(=O)N1c1ccccc1,inconclusive: -5.82%,
CCC(CNc1cc(OC)cc2cccnc12)NC1CCCCC1 (configuration not stated),inconclusive: 10.2%,
CC1(C)Cc2c(sc(NC(=O)c3ccc(C(=O)c4ccccc4)cc3)c2C(N)=O)C(C)(C)N1,,"inconclusive: 7.08 µM [falling, partial curve]"
CCOC(=O)[C@H]1[C@H]2COc3ccc(Br)cc3[C@@H]2N2C(=O)CN(Cc3ccc(F)cc3)C(=O)[C@@]12C,inconclusive: 10%,
COc1cc2nc(NCCCN3CCN(C)CC3)n3nc(-c4ccccc4)nc3c2cc1OC,,"inconclusive: 2.59 µM [rising, full curve, poor fit]"
CSc1ccc(N2C(=O)NC3(CCCCC3)C2=O)cc1,inconclusive: -0.593%,
O=[N+]([O-])c1ccc(/C=N/n2c(COc3ccccc3)n[nH]c2=S)cc1,inactive: 11.9%,

Structure (SMILES),"activity change, negative = inhibition",Potency
CC(C)C(=O)NC(=S)Nc1ccc(S(=O)(=O)Nc2ccccc2)cc1,inactive: -13.7%,
OCCC1CN(Cc2nc(-c3ccccc3)cs2)CCN1Cc1ccc(F)cc1 (configuration not stated),inactive: 2.41%,
Cc1nn(Cc2ccccc2)c(Cl)c1/C=C/C(=O)OCC(=O)NC(C)C(C)C (configuration not stated),inconclusive: 1.95%,
O=C(CSc1nc2ccccc2c(=O)n1Cc1ccco1)N1CCN(c2ccccc2)CC1,inconclusive: 0.604%,
O=C1Nc2ccccc2Oc2cc(Oc3ccccc3)ccc21,inconclusive: 26.9%,
CN=c1scc(-c2ccc([N+](=O)[O-])cc2)n1/N=C/c1ccco1,inactive: 0.913%,
NNC(=O)CCc1ccc(S(=O)(=O)N2CCOCC2)cc1,,"inconclusive: 2.82 µM [falling, partial curve, poor fit]"
O=C(NNC(=O)C12CC3CC(CC(Cl)(C3)C1)C2)c1csc(N2CCOCC2)n1,inconclusive: -4.19%,
Cc1ccc(Nc2nc(NCc3ccco3)c3ccccc3n2)cc1,,"inconclusive: 14.1 µM [falling, single point]"
Cc1ccccc1OCC(O)Cn1c2ccccc2c2ccccc21 (configuration not stated),inactive: 6.97%,
Clc1cccc(CON/C=N/c2ncnc3sccc23)c1,inconclusive: -13.4%,
CN1CCN(C(=S)c2cn(Cc3ccc(Br)cc3)c3ccccc23)CC1,inactive: 15.7%,
CNc1ncc(C(=O)c2ccccc2)s1,,"inconclusive: 25.1 µM [falling, partial curve]"
C=CCSC1=N/C(=C\c2cccnc2)C(=O)N1c1ccc(OC)cc1,inactive: -7.67%,
CC(=O)Nc1ccc(S(=O)(=O)N2CCN(C(C)CCc3ccccc3)CC2)cc1 (configuration not stated),inactive: 12.9%,
Cc1ccccc1NC(=S)NC(NC(=O)c1ccccc1C)C(Cl)(Cl)Cl (configuration not stated),inactive: 6.43%,
COC(=O)c1ccc2c(=O)n(CCCCCC(=O)O)c(=O)[nH]c2c1,,"inconclusive: 32.6 µM [falling, partial curve, poor fit]"
O=C(CSc1nc(C2CCCCC2)nc2ccccc12)NCc1ccco1,,"inconclusive: 35.5 µM [falling, single point]"
O=C(Nc1ccc2c(c1)OCCO2)c1ccccc1,,"inconclusive: 25.1 µM [falling, single point]"
CCn1c(SCC(=O)c2ccc(O)c(O)c2)nnc1-c1ccccc1OC,,"inconclusive: 12.6 µM [falling, partial curve]"
CCOC(=O)c1cc2c(s1)-c1c(C)cccc1OC2,inconclusive: 0.348%,

Structure (SMILES),"activity change, negative = inhibition",Potency
CN(c1ccccc1)S(=O)(=O)c1ccc(NC(=O)c2nc(S(C)(=O)=O)ncc2Cl)cc1,inconclusive: 21.3%,
C=CCOc1ccc(CNc2ccc3[nH]c(=O)[nH]c3c2)cc1,inactive: 13.2%,
CCc1ccc(-c2c(C)sc(NC(C)=O)c2C(N)=O)cc1,,"inconclusive: 10 µM [falling, partial curve]"
COc1ccc2[nH]c(=O)c(C(c3nnnn3CC3CCCO3)N3CCc4ccccc4C3)cc2c1 (configuration not stated),inactive: -7.19%,
CC(=O)c1c(C(C)=O)c(C)n(-c2nc(-c3ccccc3)c(C)s2)c1C,inconclusive: -6.71%,
CCOC(=O)c1sc(NS(=O)(=O)c2ccccc2Cl)nc1C,,"inconclusive: 29.1 µM [rising, single point]"
COc1ccccc1N1CCN(c2ncnc3c2nnn3C)CC1,,"inconclusive: 22.4 µM [falling, single point]"
Cc1cnc(C(=O)OCC(=O)Nc2ccc(C)c(S(=O)(=O)N(C)C)c2)cn1,inconclusive: 5.03%,
CSc1ccc(CC(=O)N2CCC(n3nccc3NC(=O)C3CC3)CC2)cc1,inconclusive: 5.98%,
NC(=O)c1nn(-c2ccccc2)nc1N,inconclusive: -2.92%,
CC(C)=NNc1nc2sc3c(c2c(=O)[nH]1)CC(C)(C)OC3,inconclusive: 4.73%,
CCCn1c(SCC(=O)N2CCCC2)nc2c1c(=O)n(C)c(=O)n2C,inactive: 4.81%,
O=C(COc1ccccc1)N1CCN=C1SCc1ccc(F)cc1,,"inconclusive: 25.1 µM [falling, single point]"
Cc1cc(NC(=O)/C=C\C(=O)O)c([N+](=O)[O-])cc1C,inactive: -10.4%,
O=C(NNc1ccccc1)/C(=C\c1cccnc1)NC(=O)c1ccccc1,inconclusive: 5.02%,
COc1ccc(C(C)NC(=S)NC2CCCC2)cc1OC (configuration not stated),inconclusive: 3.33%,
O=c1c2sccc2[nH]c(=S)n1-c1ccccc1,inactive: 4.28%,
NS(=O)(=O)c1ccc(NNC(=O)c2ccc(Br)o2)c([N+](=O)[O-])c1,inactive: 2.12%,
COc1ccc(/C=N/Nc2ncc(Br)cn2)c(OC)c1,inactive: 1.11%,

# As entered above:
# activity change, negative = inhibition with Cc1cc(NC(=O)/C=C\C(=O)O)c([N+](=O)[O-])cc1C is entered as inactive: -10.4%
# activity change, negative = inhibition with COc1ccc(/C=N/Nc2ncc(Br)cn2)c(OC)c1 is entered as inactive: 1.11%
# activity change, negative = inhibition with CCCn1c(SCC(=O)N2CCCC2)nc2c1c(=O)n(C)c(=O)n2C is entered as inactive: 4.81%
# Potency with CCc1ccc(-c2c(C)sc(NC(C)=O)c2C(N)=O)cc1 is entered as inconclusive: 10 µM [falling, partial curve]
# activity change, negative = inhibition with NS(=O)(=O)c1ccc(NNC(=O)c2ccc(Br)o2)c([N+](=O)[O-])c1 is entered as inactive: 2.12%
